Data: patent US20230023285A1, “PHARMACEUTICAL COMPOSITION FOR USE IN PREVENTING OR STOPPING METASTASES” (LOGICK ENERGETICS B.V., priority 2019, published 2023)
At least one compound was matched to its structure with a doubt left.

What was measured:
Assay type in all cases: cell-based, mouse
EpCAM = EpCAM gene expression by qPCR in MTΔECad cells; settings: qPCR normalized to GAPDH
Procedure: (§1) For the stimulation of MTΔECad cells the following concentrations were used: PPS (5 μg/ml), Indomethacin (50 μM), en Pioglitazone (10 μM).
(§2) Untreated cell lines were employed as negative controls. As read-outs of adipogenesis, several approaches were tested: • 1. Oil red O staining by histochemistry. • 2. Nile Red staining by immuno-fluorescence (IF) • 3. RTqPCR (gene expression analysis) • Adiponectin (adipocyte marker) • EpCam (marker for epithelial cells) FIGS. 15a-d show stimulation schemes; FIGS. 15a-b according to prior art, and FIGS. 15c-15d according to the present invention.
(§3) Inventors studied the effect of treatment of MTΔECad cells with the different compounds and combinations on EpCAM expression as a marker for epithelial cells and Adiponectin expression as a marker for adipocytes.
(§4) Steps performed when measuring gene expression using real-time PCR.
(§5) RNA was first isolated and characterized for quantity and integrity. During a two-step reaction, cDNA was first synthesized and then used as a PCR template. The housekeeping gene GAPDH was used for normalizing the results. A normalization factor has been used for calculating each individual sample. Dividing the fluorescent data by its normalization factor produced the normalized data, which was followed by statistical analysis.

MTΔECad cells = experiment: Oil Red O staining of treated MTΔECad cells; settings: PPS 5 μg/ml, Indomethacin 50 μM, Pioglitazone 10 μM
Adiponectin = Adiponectin gene expression by qPCR in MTΔECad cells; settings: qPCR normalized to GAPDH
Procedure: as §1, §2, §3, §4, §5

## CCc1ccc(CCOc2ccc(CC3SC(=O)NC3=O)cc2)nc1 (stereo not drawn) [Pioglitazone]
EpCAM
  EpCAM gene expression: clearly stimulated EpCAM expression
MTΔECad cells
  adipocyte formation (Oil Red O staining): can stimulate adipocyte formation at a low level
Adiponectin
  adiponectin gene expression: obviously stimulated adiponectin gene expression
